Assay results published in publication PMC3526400.
No constants are given. Whether binding was seen depends on the method and setting. In cells and extracts the contact can be indirect. Some binding calls cover weakened binding; strength is not graded here.

The chains behind the UniProt entries cited, without tags or fusion partners. Residues count along the entry.
UniProt P07632: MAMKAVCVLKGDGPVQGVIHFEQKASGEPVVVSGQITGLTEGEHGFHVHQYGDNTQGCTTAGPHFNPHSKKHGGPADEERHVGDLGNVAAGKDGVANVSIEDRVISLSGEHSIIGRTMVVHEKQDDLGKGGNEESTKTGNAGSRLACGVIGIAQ
UniProt P04785, residues 20-509: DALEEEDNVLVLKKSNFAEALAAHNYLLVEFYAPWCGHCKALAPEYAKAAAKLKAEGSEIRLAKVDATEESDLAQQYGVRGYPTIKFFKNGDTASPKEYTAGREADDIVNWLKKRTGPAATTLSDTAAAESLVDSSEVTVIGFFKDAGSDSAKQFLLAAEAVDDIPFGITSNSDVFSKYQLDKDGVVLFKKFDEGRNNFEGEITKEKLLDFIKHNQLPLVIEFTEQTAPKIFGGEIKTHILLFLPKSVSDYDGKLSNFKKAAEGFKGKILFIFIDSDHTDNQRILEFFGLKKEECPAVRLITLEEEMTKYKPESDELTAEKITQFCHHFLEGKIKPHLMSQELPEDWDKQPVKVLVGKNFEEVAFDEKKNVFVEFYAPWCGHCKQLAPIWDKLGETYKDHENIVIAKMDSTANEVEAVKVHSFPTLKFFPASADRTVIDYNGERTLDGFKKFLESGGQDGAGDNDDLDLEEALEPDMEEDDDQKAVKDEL

Key:
[1] = biological target: copper-zinc superoxide dismutase (SOD1) (rat (endogenous in primary astrocytes of neonatal Wistar rats)) (UniProt P07632); test: co-IP; whole-cell lysates of cultured rat astrocytes (normoxic control, OGD 8 h, OGD/reperfusion), precleared with protein A-Sepharose; anti-SOD1 or anti-PDI antibody with protein A-Sepharose CL-4B overnight at 4°C; washed in Tris buffer; immunoblot
[2] = biological target: protein disulfide isomerase (PDI) (rat (endogenous in primary astrocytes of neonatal Wistar rats)) (UniProt P04785); test: as above

Row | binding [1] | binding [2] | Substance
1 | binds | – | protein disulfide isomerase (PDI) (from UniProt P04785 20-509)
2 | – | binds | copper-zinc superoxide dismutase (SOD1) (from UniProt P07632 1-154)
